Measurements from patent publication US20070041944A1, “Treating tumors by ENH dislocation of ID proteins” (THE TRUSTEES OF COLUMBIA UNIVERSITY IN THE CITY OF NEW YORK, priority 2005, published 2007).
At least one compound was matched to its structure with a doubt left.

Test system: ENH and Id2 expression in SH-N and SH-F cells
Assay: Northern and Western blot of ENH and Id2 in RA-treated neuroblastoma cells
Format: cell-based, human

CC1=C(/C=C/C(C)=C/C=C/C(C)=C/C(=O)O)C(C)(C)CCC1 [RA, retinoic acid]
ENH mRNA and protein (RA 0.1 μM, SH-N and SH-F cells): progressive elevation | Id2 expression (RA 0.1 μM, SK-N-SH derivatives): little change | Id2 protein (RA-treated SH-N cells (FIG. 3D)): late decrease
